Earlier results in patent publication US20080075660A1, “Near infrared-fluorescence using phospholipid ether analog dyes in endoscopic applications” (Cellectar, LLC, priority 2006, published 2008).
For at least one compound, name, drawing or mass did not settle the structure.

What was measured:
malignant cells = settings: previously shown, cited from earlier work
tumor = settings: intravenous injection, previously shown; cited from earlier work

In the case of C[N+](C)(C)CCOP(=O)([O-])OCCCCCCCCCCCCCCCCCCc1ccc(I)cc1 [NM404, 18-(p-Iodophenyl)octadecyl phosphocholine], the “accumulation in cells with impaired status” value (malignant cells; cells such as those undergoing necrosis) is given as “lack significant accumulation”, the “entry and retention in viable malignant cells” value (malignant cells; viable malignant cells) is given as “enter and be selectively retained in viable malignant cells” and the tumor therapy effectiveness (tumor) is given as “effective tumor therapies following intravenous injection”.
